Assay results as given in PMC12135372.

Key:
[1] = target: Tb-RtcB L130C (Thermococcus barophilus) (UniProt F0LKB8); assay: disulfide (cystamine) crosslinking, SDS-PAGE; conditions: 2.5 mM MnCl2, no specific crosslink (position-dependent), up to 1 mM DTT; cystamine on phosphate between nt 1 and 2; 2'-F at nt 1; 3'-phosphate; crosslinking: 50 mM Tris pH 7.5, 25 mM NaCl, 25 mM KCl, 30% glycerol, 2.5 mM MnCl2, 0-1 mM DTT, 37 C 2 h then 24 C 14 h; recombinant protein; protein details: His6-SUMO removed
[2] = target: Tb-RtcB S199C (Thermococcus barophilus) (UniProt F0LKB8); assay: disulfide (cystamine) crosslinking, SDS-PAGE; conditions: 2.5 mM MnCl2, no specific crosslink (position-dependent), up to 1 mM DTT; cystamine on phosphate between nt 1 and 2; 2'-F at nt 1; 3'-phosphate; crosslinking: 50 mM Tris pH 7.5, 25 mM NaCl, 25 mM KCl, 30% glycerol, 2.5 mM MnCl2, 0-1 mM DTT, 37 C 2 h then 24 C 14 h; recombinant protein; protein details: His6-SUMO removed

Sequence: AAACACCGGUGGAGG [RNA-2]
- binding result [1]: no binding
- binding result [2]: no binding

For at least one entry, the source does not settle the construct or the ends of the probe. No signal at the amounts used counts as a negative.
